Test results as given in PMC7499204.
These are yes or no findings as the source states them, for the method shown. In cells and extracts the contact can be indirect. Some binding calls cover weakened binding; strength is not graded here. Sequences can lack the tags named with a protein.

The chains behind the UniProt entries cited, without tags or fusion partners.
UniProt Q86TM6: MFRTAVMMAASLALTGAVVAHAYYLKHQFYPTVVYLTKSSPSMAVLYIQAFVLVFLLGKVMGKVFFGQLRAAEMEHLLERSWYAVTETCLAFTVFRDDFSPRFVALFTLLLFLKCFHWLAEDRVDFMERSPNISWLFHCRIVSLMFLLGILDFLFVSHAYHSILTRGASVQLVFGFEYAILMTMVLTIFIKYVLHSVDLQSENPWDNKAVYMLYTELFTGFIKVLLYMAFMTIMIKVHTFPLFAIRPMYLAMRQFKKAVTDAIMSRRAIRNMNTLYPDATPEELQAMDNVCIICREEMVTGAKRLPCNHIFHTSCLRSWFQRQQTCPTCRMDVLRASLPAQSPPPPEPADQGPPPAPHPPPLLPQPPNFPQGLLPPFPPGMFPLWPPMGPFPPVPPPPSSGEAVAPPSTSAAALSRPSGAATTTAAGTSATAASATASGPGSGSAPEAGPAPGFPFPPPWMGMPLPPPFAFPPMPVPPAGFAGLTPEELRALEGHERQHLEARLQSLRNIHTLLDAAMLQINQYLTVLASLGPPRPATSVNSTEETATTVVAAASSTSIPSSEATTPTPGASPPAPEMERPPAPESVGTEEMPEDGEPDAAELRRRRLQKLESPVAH
UniProt Q7Z434: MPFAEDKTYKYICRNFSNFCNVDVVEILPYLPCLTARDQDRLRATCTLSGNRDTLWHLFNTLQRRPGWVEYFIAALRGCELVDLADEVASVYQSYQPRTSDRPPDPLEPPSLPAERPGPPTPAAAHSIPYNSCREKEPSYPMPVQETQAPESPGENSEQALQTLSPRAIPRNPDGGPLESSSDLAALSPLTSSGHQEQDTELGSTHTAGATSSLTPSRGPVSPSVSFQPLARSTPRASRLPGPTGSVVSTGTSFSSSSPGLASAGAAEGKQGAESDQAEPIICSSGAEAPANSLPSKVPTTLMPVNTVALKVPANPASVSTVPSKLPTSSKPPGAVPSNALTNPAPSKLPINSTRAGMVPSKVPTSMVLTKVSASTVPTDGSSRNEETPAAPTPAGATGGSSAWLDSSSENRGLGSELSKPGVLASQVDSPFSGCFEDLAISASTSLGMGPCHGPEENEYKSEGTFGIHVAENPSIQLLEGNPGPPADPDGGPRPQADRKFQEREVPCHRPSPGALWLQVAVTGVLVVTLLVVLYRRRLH

Columns and labels:
[1] = target: Myc-tagged SYVN1, full length (pcDNA3.1-SYVN1-myc) (UniProt Q86TM6); test: co-IP
[2] = target: HA-tagged MAVS, full length (pcDNA3.1-MAVS-HA) (UniProt Q7Z434); test: co-IP

- binding [1]: binds
- binding [2]: binds
B1: Mfn2(HR1)-Flag, 4,3 hydrophobic heptad repeat (HR1) region of Mfn2 (amino acid residues 369-598) (domain or fragment, UniProt O95140 369-598)
chain: AEAVRLIMDSLHMAAREQQVYCEEMREERQDRLKFIDKQLELLAQDYKLRIKQITEEVERQVSTAMAEEIRRLSVLVDDYQMDFHPSPVVLKVYKNELHRHIEEGLGRNMSDRCSTAITNSLQTMQQDMIDGLKPLLPVSVRSQIDMLVPRQCFSLNYDLNCDKLCADFQEDIEFHFSLGWTMLVNRFLGPKNSRRALMGYNDQVQRPIPLTPANPSMPPLPQGSLTQEE
